Measured values published in PMC5405113.
No constants are given. Whether binding was seen depends on the method and setting. Binding seen in cells or lysates may run through a third protein. Some binding calls cover weakened binding; strength is not graded here. Sequences can lack the tags named with a protein.

T1: Cdc20^Slp1 with an internal 3×FLAG tag (fission yeast (S. pombe)) (UniProt P78972)
T1 sequence: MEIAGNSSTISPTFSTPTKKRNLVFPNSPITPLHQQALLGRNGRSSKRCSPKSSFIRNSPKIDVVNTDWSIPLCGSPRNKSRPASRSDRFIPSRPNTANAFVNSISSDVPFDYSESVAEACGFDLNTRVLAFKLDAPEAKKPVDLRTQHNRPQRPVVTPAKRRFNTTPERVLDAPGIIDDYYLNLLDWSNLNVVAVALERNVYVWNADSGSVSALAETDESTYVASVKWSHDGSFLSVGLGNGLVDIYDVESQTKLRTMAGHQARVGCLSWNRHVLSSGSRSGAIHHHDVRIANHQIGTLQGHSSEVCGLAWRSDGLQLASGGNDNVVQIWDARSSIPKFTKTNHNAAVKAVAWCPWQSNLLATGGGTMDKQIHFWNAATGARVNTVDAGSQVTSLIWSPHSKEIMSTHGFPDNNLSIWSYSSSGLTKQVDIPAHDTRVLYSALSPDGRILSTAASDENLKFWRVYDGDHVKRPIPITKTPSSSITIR

T2: Mad3-GFP (fission yeast (S. pombe)) (UniProt O59767)
T2 sequence: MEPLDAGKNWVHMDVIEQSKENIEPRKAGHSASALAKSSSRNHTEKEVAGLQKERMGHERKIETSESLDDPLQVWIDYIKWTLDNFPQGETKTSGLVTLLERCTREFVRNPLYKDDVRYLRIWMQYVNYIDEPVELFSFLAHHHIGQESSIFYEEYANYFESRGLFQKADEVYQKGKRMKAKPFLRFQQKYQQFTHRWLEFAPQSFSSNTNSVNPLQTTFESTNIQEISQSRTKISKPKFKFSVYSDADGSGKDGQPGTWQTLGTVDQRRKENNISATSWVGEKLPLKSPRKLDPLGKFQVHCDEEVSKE

T3: Apc1-GFP (fission yeast (S. pombe)) (UniProt Q9URV2)
T3 sequence: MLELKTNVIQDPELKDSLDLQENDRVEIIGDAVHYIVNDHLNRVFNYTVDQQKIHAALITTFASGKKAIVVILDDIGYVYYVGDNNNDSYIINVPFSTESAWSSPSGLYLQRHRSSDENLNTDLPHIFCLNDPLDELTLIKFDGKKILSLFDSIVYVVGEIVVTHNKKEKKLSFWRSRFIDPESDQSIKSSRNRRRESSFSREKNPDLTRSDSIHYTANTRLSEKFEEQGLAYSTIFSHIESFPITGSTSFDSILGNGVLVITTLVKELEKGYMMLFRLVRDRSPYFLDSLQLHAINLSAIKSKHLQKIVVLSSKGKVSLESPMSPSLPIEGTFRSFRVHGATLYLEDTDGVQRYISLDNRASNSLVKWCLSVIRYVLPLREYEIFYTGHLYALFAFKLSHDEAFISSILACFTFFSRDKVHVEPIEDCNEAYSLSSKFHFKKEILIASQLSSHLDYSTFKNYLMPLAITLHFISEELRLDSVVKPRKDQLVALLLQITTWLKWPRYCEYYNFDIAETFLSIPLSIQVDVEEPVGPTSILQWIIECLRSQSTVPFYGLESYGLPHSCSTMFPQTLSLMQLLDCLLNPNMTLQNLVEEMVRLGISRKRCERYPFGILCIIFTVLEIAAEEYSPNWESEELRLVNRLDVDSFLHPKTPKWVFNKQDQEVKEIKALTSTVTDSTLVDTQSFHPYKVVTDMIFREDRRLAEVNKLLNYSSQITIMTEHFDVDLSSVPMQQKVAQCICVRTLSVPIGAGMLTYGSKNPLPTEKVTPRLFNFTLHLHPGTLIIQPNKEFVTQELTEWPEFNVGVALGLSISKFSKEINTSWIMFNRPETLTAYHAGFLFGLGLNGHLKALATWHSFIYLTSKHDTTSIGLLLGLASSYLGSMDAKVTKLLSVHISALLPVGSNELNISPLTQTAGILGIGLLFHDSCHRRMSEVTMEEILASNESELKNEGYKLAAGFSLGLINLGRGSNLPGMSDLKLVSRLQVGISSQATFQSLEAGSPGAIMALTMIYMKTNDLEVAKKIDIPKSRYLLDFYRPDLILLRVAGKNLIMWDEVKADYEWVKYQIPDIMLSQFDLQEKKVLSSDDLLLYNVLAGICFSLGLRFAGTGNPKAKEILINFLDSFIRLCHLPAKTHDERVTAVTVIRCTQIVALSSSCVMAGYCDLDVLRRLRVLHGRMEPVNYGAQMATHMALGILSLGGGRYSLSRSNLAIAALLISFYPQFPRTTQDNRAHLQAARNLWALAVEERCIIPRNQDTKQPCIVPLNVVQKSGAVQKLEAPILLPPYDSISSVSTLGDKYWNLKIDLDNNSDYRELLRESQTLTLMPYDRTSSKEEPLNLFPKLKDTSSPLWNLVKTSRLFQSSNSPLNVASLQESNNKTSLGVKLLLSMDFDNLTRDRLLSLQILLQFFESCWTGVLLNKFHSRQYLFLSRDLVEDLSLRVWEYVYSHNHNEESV

B1: Mad3 (protein, UniProt O59767 1-310)
chain: T2 sequence
B2: Mad2 (protein, UniProt O14417 1-203)
chain: MSSVPIRTNFSLKGSSKLVSEFFEYAVNSILFQRGIYPAEDFKVVRKYGLNMLVSVDEEVKTYIRKIVSQLHKWMFAKKIQKLILVITSKCSGEDLERWQFNVEMVDTADQFQNIGNKEDELRVQKEIQALIRQITATVTFLPQLEEQCTFNVLVYADKDSEVPTDWVDSDPRILRDAEQVQLRSFSTSMHKIDCQVAYRVNP
B3: Apc15 (protein, UniProt O94688 1-136)
chain: MSFMSLMANTAHQLWYPTSFPSMKELEKEEVRLETQELAIKQFGFRTIRPIGLNRSMQEQLDLEEQEREEANQDTELDEEELGSGSFPEEGEMDDMDGDNEEVEDHDIEEVDLDADITNADASEFYEDISEYGFQN

Experiments:
[1] = biological target: T1, Cdc20^Slp1 with an internal 3×FLAG tag (fission yeast (S. pombe)); test: co-IP; Cdc20-FLAG immunoprecipitated from lysates of cdc25-22 cdc20-FLAG cells synchronised by cdc25 block and release, samples at 15-min intervals; wild type, apc14Δ and apc15Δ; blotted for Mad3 and Mad2
[2] = biological target: T1, Cdc20^Slp1 with an internal 3×FLAG tag (fission yeast (S. pombe)); test: co-IP; Cdc20-FLAG immunoprecipitated from the supernatant of mitotic lysates (cdc25-22 cdc20-HA cdc20-FLAG cut9-GFP, 60 min after release) after four rounds of Cut9-GFP immunodepletion of the APC/C; wild type and apc15Δ
[3] = biological target: T2, Mad3-GFP (fission yeast (S. pombe)); test: co-IP; strains expressing normal Mad3 and Mad3-GFP, mitotically arrested cells (Figure S3B)
[4] = biological target: T3, Apc1-GFP (fission yeast (S. pombe)); test: co-IP; Apc1-GFP immunoprecipitated (four rounds of immunodepletion) from lysates of cells arrested in metaphase by nda3; beads blotted for Apc15, Cdc20 and checkpoint proteins

| Binder | binding [1] | binding [2] | binding [3] | binding [4] |
| --- | --- | --- | --- | --- |
| B1 | binds | binds | no binding |  |
| B2 | binds | binds |  |  |
| B3 |  |  |  | binds |
